One molecule from doi:10.1101/605725 can be followed below.

The chains behind the UniProt entries cited, without tags or fusion partners.
UniProt Q9VV73: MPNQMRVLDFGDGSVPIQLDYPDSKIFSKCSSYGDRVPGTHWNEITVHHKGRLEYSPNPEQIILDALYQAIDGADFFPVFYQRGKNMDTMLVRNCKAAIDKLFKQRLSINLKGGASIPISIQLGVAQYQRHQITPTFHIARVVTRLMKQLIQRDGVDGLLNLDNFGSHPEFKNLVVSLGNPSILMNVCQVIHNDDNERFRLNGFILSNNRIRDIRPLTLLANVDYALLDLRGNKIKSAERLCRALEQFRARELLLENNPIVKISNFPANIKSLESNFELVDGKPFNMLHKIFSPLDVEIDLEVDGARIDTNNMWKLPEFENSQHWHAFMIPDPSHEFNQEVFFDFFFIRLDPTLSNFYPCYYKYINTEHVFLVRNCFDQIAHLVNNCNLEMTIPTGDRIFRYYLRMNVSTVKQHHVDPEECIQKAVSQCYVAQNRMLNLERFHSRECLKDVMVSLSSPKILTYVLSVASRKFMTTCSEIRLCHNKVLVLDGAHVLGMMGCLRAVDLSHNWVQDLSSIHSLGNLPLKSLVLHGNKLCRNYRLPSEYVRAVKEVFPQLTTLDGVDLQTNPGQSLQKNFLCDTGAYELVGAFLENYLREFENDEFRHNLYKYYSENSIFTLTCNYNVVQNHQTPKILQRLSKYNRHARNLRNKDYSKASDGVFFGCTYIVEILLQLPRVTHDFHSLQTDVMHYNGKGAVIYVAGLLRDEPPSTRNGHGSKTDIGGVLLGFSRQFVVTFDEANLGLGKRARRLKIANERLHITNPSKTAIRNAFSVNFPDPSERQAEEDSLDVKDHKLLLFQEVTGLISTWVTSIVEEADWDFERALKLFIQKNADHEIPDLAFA

The target in the experiment is flag-tagged Nxf2 (Drosophila) (UniProt Q9VV73). The experiment in a line: affinity purification with mass spectrometry.

These are yes or no findings as the source states them, for the method shown. In cells and extracts the contact can be indirect. Here binding means that the protein was enriched with, or labelled near, the bait; the list need not be complete.

B1: Piwi (protein, UniProt Q9VKM1 1-843)
chain: MADDQGRGRRRPLNEDDSSTSRGSGDGPRVKVFRGSSSGDPRADPRIEASRERRALEEAPRREGGPTERKPWGDQYDYLNTRPAELVSKKGTDGVPVMLQTNFFRLKTKPEWRIVHYHVEFEPSIENPRVRMGVLSNHANLLGSGYLFDGLQLFTTRKFEQEITVLSGKSKLDIEYKISIKFVGFISCAEPRFLQVLNLILRRSMKGLNLELVGRNLFDPRAKIEIREFKMELWPGYETSIRQHEKDILLGTEITHKVMRTETIYDIMRRCSHNPARHQDEVRVNVLDLIVLTDYNNRTYRINDVDFGQTPKSTFSCKGRDISFVEYYLTKYNIRIRDHNQPLLISKNRDKALKTNASELVVLIPELCRVTGLNAEMRSNFQLMRAMSSYTRMNPKQRTDRLRAFNHRLQNTPESVKVLRDWNMELDKNVTEVQGRIIGQQNIVFHNGKVPAGENADWQRHFRDQRMLTTPSDGLDRWAVIAPQRNSHELRTLLDSLYRAASGMGLRIRSPQEFIIYDDRTGTYVRAMDDCVRSDPKLILCLVPNDNAERYSSIKKRGYVDRAVPTQVVTLKTTKNRSLMSIATKIAIQLNCKLGYTPWMIELPLSGLMTIGFDIAKSTRDRKRAYGALIASMDLQQNSTYFSTVTECSAFDVLANTLWPMIAKALRQYQHEHRKLPSRIVFYRDGVSSGSLKQLFEFEVKDIIEKLKTEYARVQLSPPQLAYIVVTRSMNTRFFLNGQNPPPGTIVDDVITLPERYDFYLVSQQVRQGTVSPTSYNVLYSSMGLSPEKMQKLTYKMCHLYYNWSGTTRVPAVCQYAKKLATLVGTNLHSIPQNALEKKFYYL
In the case of B1, the binding entry was “binds”.
